Measured values taken from patent US20180086837A1.
Substitutions are numbered along the chain they refer to. These are yes or no findings as the source states them, for the method shown. Binding can be weak; no strength is given. Each block holds one binder with its values, some of them ahead of it.

Experiments:
human CXCR4 (human) [1] = test: ELISA on hCXCR4 viral lipoparticles, anti-c-myc detection
human CXCR4 (human) [2] = test: ELISA on coated hCXCR4 lipoparticles versus null lipoparticles, anti-c-myc + anti-mouse-HRP
human CXCR4 (human) [3] = test: radio-ligand displacement on membranes of CXCR4-transfected HEK293 cells; competitor: 75 pM [125I]-CXCL12
human CXCR4 (human) [4] = test: flow cytometry, transfected HEK293T cells
human CXCR4 (human) [5] = test: displacement of biotinylated SDF-1 from CXCR4 on cells, flow cytometry; IC50 drawn as a bar
human CXCR4 (human) [6] = test: flow cytometry on MOLM-13 cells, dose titration, anti-tag detection
human CXCR4 (human) [7] = test: flow cytometry competition on Jurkat cells; competitor: anti-CXCR4 mAb 12G5
human CXCR4 (human) [8] = test: flow cytometry on Jurkat E6.1 cells, dose titration, anti-tag detection
human CXCR4 (human) [9] = test: flow cytometry competition on THP-1 cells; competitor: anti-CXCR4 mAb 12G5
human CXCR4 (human) [10] = test: flow cytometry competition on Jurkat cells; competitor: 1 nM anti-CXCR4 mAb 12G5, goat anti-mouse-PE
human CXCR4 (human) [11] = test: flow cytometry on Jurkat cells, Nanobody at its EC30, anti-myc detection, displaced by rising AMD3100 (small molecule)
human CXCR4 (human) [12] = test: flow cytometry on THP-1 cells, dose titration, anti-tag detection
human CXCR4 (human) [13] = test: competition FACS on Hek-CXCR4 cells; competitor: 30 nM biotinylated SDF-1

binding (human CXCR4 (human) [1]): binds
binding (human CXCR4 (human) [2]): binds
B1: 03F11-25GS-281F12 (bispecific antibody, not shown: small tags and cut ends)
chain: EVQLVESGGGSVQPGGSLTLSCGTSGRTFNVMGWFRQAPGKEREFVAAVRWSSTGIYYTQYADSVKSRFTISRDNAKNTVYLEMNSLKPEDTAVYYCAADTYNSNPARWDGYDFRGQGTQVTVSSGGGGSGGGGSGGGGSGGGGSGGGGSEVQLVESGGGLVQAGDSLRLSCAASGRAFSRYAMGWFRQAPGKEREFVAAIGWGPSKTNYADSVKGRFTISRDNAKNTVYLQMNTLKPEDTAVYSCAAKFVNTDSTWSRSEMYTYWGQGTQVTVSS

binding (human CXCR4 (human) [1]): binds
binding (human CXCR4 (human) [2]): binds
B2: 281F12-9GS-03F11 (bispecific antibody, not shown: small tags and cut ends)
chain: EVQLVESGGGLVQAGDSLRLSCAASGRAFSRYAMGWFRQAPGKEREFVAAIGWGPSKTNYADSVKGRFTISRDNAKNTVYLQMNTLKPEDTAVYSCAAKFVNTDSTWSRSEMYTYWGQGTQVTVSSGGGSGGGGSEVQLVESGGGSVQPGGSLTLSCGTSGRTFNVMGWFRQAPGKEREFVAAVRWSSTGIYYTQYADSVKSRFTISRDNAKNTVYLEMNSLKPEDTAVYYCAADTYNSNPARWDGYDFRGQGTQVTVSS

binding (human CXCR4 (human) [3]): binds
B3: Nanobody 281D4 (VHH)
VHH: EVQLVESGGGLVQAGGSLRLSCAASGGTFNNYAMGWFRRAPGKEREFVAAISRSGVRTGVSALYGDSVKDRFTISRDNAKNTLYLQMNKMKPEDTAVYTCAASAIGSGALRRFEYDSSGQGTQVTVSS

binding (human CXCR4 (human) [3]): binds
B4: Nanobody 281A6 (VHH)
VHH: B3 VHH with A14T

binding (human CXCR4 (human) [4]): binds
binding (human CXCR4 (human) [5]): binds
B5: Nanobody 15A1 (VHH)
VHH: EVQLVESGGGLVQAGGSLRLSCAASGRTFSRAAMGWFRQAPGKEREFVGCALSSAGSALTADSVKGRFTISRDNAKNMVYLQMNNLKPEDTAVYSCVAGGYCTRAGVYPYWGQGTQVTVSS

binding (human CXCR4 (human) [6]): binds
binding (human CXCR4 (human) [7]): binds
binding (human CXCR4 (human) [8]): binds
binding (human CXCR4 (human) [9]): binds
binding (human CXCR4 (human) [10]): binds
binding (human CXCR4 (human) [2]): binds
binding (human CXCR4 (human) [3]): binds
binding (human CXCR4 (human) [11]): binds
binding (human CXCR4 (human) [12]): binds
binding (human CXCR4 (human) [5]): binds
B6: Nanobody 281F12 (VHH, not shown: small tags and cut ends)
VHH: EVQLVESGGGLVQAGDSLRLSCAASGRAFSRYAMGWFRQAPGKEREFVAAIGWGPSKTNYADSVKGRFTISRDNAKNTVYLQMNTLKPEDTAVYSCAAKFVNTDSTWSRSEMYTYWGQGTQVTVSS

binding (human CXCR4 (human) [13]): binds
binding (human CXCR4 (human) [5]): binds
B7: Nanobody 10C3 (VHH)
VHH: EVQLVESGGGLVQPGGSLRLSCAASGTIFSTSTMGWYSQAPGKQRELVADITFLGSAKYADSVKGRFTISRDKIKNTVYLQMNSLKPEDTAAYYCNARQSTFRGVHYNYWGQGTQVTVSS

binding (human CXCR4 (human) [10]): binds
binding (human CXCR4 (human) [11]): binds
B8: Nanobody 15G11 (VHH)
VHH: EVQLVESGGGLVQAGDSLRVSCAASGRTSSYAMAWFRQAPGKEREFVGTISRTNSRTKYADFVEGRFTISRDNAKSTLSLQMTSLKPEDTAVYYCAAKWTGNSYHDYTWSKVDEYNVWGQGTQVTVSS

binding (human CXCR4 (human) [1]): binds
binding (human CXCR4 (human) [2]): binds
B9: 281F12-25GS-03F11 (bispecific antibody, not shown: small tags and cut ends)
chain: EVQLVESGGGLVQAGDSLRLSCAASGRAFSRYAMGWFRQAPGKEREFVAAIGWGPSKTNYADSVKGRFTISRDNAKNTVYLQMNTLKPEDTAVYSCAAKFVNTDSTWSRSEMYTYWGQGTQVTVSSGGGGSGGGGSGGGGSGGGGSGGGGSEVQLVESGGGSVQPGGSLTLSCGTSGRTFNVMGWFRQAPGKEREFVAAVRWSSTGIYYTQYADSVKSRFTISRDNAKNTVYLEMNSLKPEDTAVYYCAADTYNSNPARWDGYDFRGQGTQVTVSS
